Measurements reported in PMC11618438 (ACS Omega, 2024).

What was measured:
[1] = test system: ERα expressed in mouse uterus; details: read-out: IC50, competition binding, [125I]-estradiol; cited from earlier work
T47D cells = test: Cell survival by MTT assay, T47D; details: Homo sapiens, read-out: IC50, MTT assay

## CC/C(=C(\c1ccccc1)c1ccc(OCCN(C)C)cc1)c1ccccc1 [tamoxifen]
[1]
  IC50: 10 nM
T47D cells
  IC50: 3100 nM
